Experimental data published in patent US20100303814A1.
Results are given in words; binding and its absence hold for the method and conditions named. Binding seen in cells or lysates may run through a third protein. A yes stands for co-enrichment or nearness to the bait. Other partners may have been found.

Assays:
[1] = target: T1, variant HnRNPG (cancer-associated variant of heterogeneous ribonucleoprotein G) (human); test: immunoprecipitation with VB1-213 from DU-145, SKBR-3 and Panc-1 membrane preparations, 1D gel band, mass spectrometry
T1 sequence: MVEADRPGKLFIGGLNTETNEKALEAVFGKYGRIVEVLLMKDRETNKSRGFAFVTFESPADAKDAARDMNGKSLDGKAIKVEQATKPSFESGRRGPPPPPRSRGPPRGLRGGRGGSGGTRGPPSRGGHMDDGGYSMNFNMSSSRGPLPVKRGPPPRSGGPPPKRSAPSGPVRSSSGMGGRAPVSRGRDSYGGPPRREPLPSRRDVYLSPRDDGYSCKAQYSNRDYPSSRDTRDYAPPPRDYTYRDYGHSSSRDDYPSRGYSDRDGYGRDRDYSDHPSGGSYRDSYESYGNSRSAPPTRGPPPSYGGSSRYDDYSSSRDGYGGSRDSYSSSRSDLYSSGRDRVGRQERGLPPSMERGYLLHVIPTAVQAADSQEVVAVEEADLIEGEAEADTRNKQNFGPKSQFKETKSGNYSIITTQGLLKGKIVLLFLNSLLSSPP

[2] = target: T1, variant HnRNPG (cancer-associated variant of heterogeneous ribonucleoprotein G) (human); test: immunoprecipitation with VB1-213, 2D-PAGE Western blot probed with VB1-213, mass spectrometry
[3] = target: T1, variant HnRNPG (cancer-associated variant of heterogeneous ribonucleoprotein G) (human); test: immunoprecipitation with VB1-213, in-solution digest, mass spectrometry

Measured: binding

B1: VB1-213 monoclonal antibody (antibody, human IgG1, V domains shown)
VH: EVQLLESGGGLVQPGGSLRLSCAASGFTFRSYAMSWVRQAPGKGLEWVSTISGRGVTTYYADSVKGRFTISRDNSKNTLYLQMNSLRADDTALYYCAKDRTRYYGMDVWGQGTTVTVSS
VL: SYELTQPPSVSVSPGQTASITCSGNKLGDKYACWYQQKSGQSPVLVIYQDSKRPSGIPERFSGSNSGNTATLTISGTQALDEADYYCQAWDNSTAVFGGGTKLTVLG
binds: [1] | [2] | [3]
